Test results taken from PubChem BioAssay AID256 (DTP/NCI, 2004).
The list does not hold the whole screen: it is rich in T/C values a quarter to a half above the control, in often repeated tests (any T/C) and in doses without a T/C. Further doses and runs are listed elsewhere. T/C: endpoint of the treated group in % of that of the vehicle group. Some doses have a count of surviving animals in place of a T/C: the source files T/C as zero there, which appears to mark a toxic dose or a test without result, not a measured value. Some survivor counts are full or nearly so, which does not show that the dose was tolerated: survival well below the control is almost never listed, so the zero probably covers shortened survival too. Survivors were counted at the toxicity check, usually on the fifth day, unless a day is given; later deaths do not show. Schedules are NCI's codes, taken here to give the interval after Q, in days (D) or hours (H), and the number of doses after X. Some entries were tested several times; the values are given in rising order. For survival time, this PubChem deposit counts one and a half times the control or more as active, and values a quarter to a half above the control carry no call in these data; other NCI protocols may use other cut-offs. Some T/C values carry the count of animals alive at the toxicity check (mostly the fifth day); where none is given, no animal had died by that day.

System: CD2F1 mice, L1210 leukemia ip, survival T/C
Test: NCI In Vivo Anticancer Drug Screen. Data for tumor model L1210 Leukemia (intraperitoneal) in CD2F1 (CDF1) mice
Details: higher T/C = longer survival
Experimental: The antitumor activity of compounds was measured in mice bearing transplantable tumors. Survival or tumor size were measured and the results are expressed as the measurement made in the treated group (T) divided by the measurement made in the vehicle treated control group (C). The tumor model used in this assay is L1210 Leukemia (intraperitoneal) in CD2F1 (CDF1) mice

[1] = T/C endpoint: mean survival time, dose: 100.0 mg/kg/injection, schedule: Q01DX009 (ip), vehicle: saline with Tween-80
[2] = T/C endpoint: mean survival time, dose: 400.0 mg/kg/injection, schedule: Q04DX003 (ip), vehicle: saline with Tween-80
[3] = T/C endpoint: mean survival time, dose: 400.0 mg/kg/injection, schedule: Q01DX001 (ip), vehicle: saline
[4] = T/C endpoint: mean survival time, dose: 200.0 mg/kg/injection, schedule: Q01DX009 (ip), vehicle: saline with Tween-80
[5] = T/C endpoint: mean survival time, dose: 400.0 mg/kg/injection, schedule: Q01DX009 (ip), vehicle: saline with Tween-80
[6] = T/C endpoint: mean survival time, dose: 2.0 mg/kg/injection, schedule: Q01DX009 (ip), vehicle: saline
[7] = T/C endpoint: mean survival time, dose: 4.0 mg/kg/injection, schedule: Q01DX009 (ip), vehicle: saline
[8] = T/C endpoint: mean survival time, dose: 75.0 mg/kg/injection, schedule: Q01DX001 (ip), vehicle: saline
[9] = T/C endpoint: mean survival time, dose: 150.0 mg/kg/injection, schedule: Q01DX001 (ip), vehicle: saline
[10] = T/C endpoint: mean survival time, dose: 300.0 mg/kg/injection, schedule: Q01DX001 (ip), vehicle: saline

C[N+]1(C)CCOC(O)(c2ccc(-c3ccccc3)cc2)C1 (stereo unspecified) was tested, and the survivor count (T/C endpoint: mean survival time, dose: 12.5 mg/kg/injection, schedule: Q04DX002 (ip), vehicle: saline) was 0 of 3.
With O=c1nc(Oc2ccccc2)nc2ncccn12 the survivor count [1] was 0 of 6.
CCC1(CC)C=CCC/C1=N\NS(=O)(=O)c1ccc(C)cc1 was tested, and the survivor count [2] was 6 of 6.
C1CCC2(CC1)OCCS2 was tested, and the survivor count [3] was 1 of 6.
COC1=C(C)C(=O)c2c(c(COC(N)=O)c3n2CC2C3N2C)C1=O (stereo unspecified) was tested, and the T/C (T/C endpoint: mean survival time, dose: 2.9 mg/kg/injection, schedule: Q01DX001 (ip), vehicle: saline) was 126 % of control [2 of 2 alive] and the T/C (T/C endpoint: mean survival time, dose: 4.5 mg/kg/injection, schedule: Q01DX001 (ip), vehicle: saline) was 132 % of control.
In the case of CN(C)c1ccc(N=Nc2ccc(S(=O)(=O)O)cc2)cc1.CN(C)c1ccc(N=Nc2ccc(S(=O)(=O)O)cc2)cc1.[NH-]C1CCCCC1[NH-].[Pt+2], the T/C (T/C endpoint: median survival time, dose: 6.25 mg/kg/injection, schedule: Q04DX003 (ip), vehicle: saline) is reported as 139 % of control, the T/C (T/C endpoint: median survival time, dose: 100.0 mg/kg/injection, schedule: Q04DX003 (ip), vehicle: saline) is reported as 139 % of control and the survivor count (T/C endpoint: median survival time, dose: 200.0 mg/kg/injection, schedule: Q04DX003 (ip), vehicle: saline) is reported as 2 of 6.
In the case of CCOC(=O)N1CCc2nc3ccccc3cc21, the survivor count (T/C endpoint: mean survival time, dose: 400.0 mg/kg/injection, schedule: Q01DX001 (ip), vehicle: other) is reported as 3 of 6.
For N=C(N)c1ccc(OCCOc2cccc(N)c2)cc1, the survivor count [4] was 3 of 6 and the survivor count [5] was 2 of 6.
For Clc1ccc2scc3c4ccccc4nc-3c2c1, the survivor count (T/C endpoint: mean survival time, dose: 100.0 mg/kg/injection, schedule: Q01DX009 (ip), vehicle: saline) was 0 of 6.
With COc1cccc2c1C(=O)c1c(O)c3c(c(O)c1C2=O)C[C@@](O)(C(C)=O)C[C@@H]3OC1CC(N(C)C)C(O)C(C)O1 (stereo partly specified) the T/C (T/C endpoint: mean survival time, dose: 1.0 mg/kg/injection, schedule: Q01DX009 (ip), vehicle: saline) was 125 % of control, the T/C [6] was 132 % of control and the T/C (T/C endpoint: mean survival time, dose: 2.0 mg/kg/injection, schedule: Q01DX009 (ip), vehicle: water) was 125 % of control. The T/C [7] was 149 % of control and the T/C (T/C endpoint: mean survival time, dose: 4.0 mg/kg/injection, schedule: Q01DX009 (ip), vehicle: water) was 145 % of control.
For C/C=C1\CN2CCC34c5ccccc5N5C(=O)CCC(C1CC23)C54 (stereo unspecified), the survivor count [8] was 0 of 6, the survivor count (T/C endpoint: mean survival time, dose: 80.0 mg/kg/injection, schedule: Q01DX001 (ip), vehicle: saline) was 3 of 6 and the survivor count [9] was 0 of 6. The survivor count [10] was 0 of 6.
COC(=O)[C@@H]1c2cc3c(c(O)c2[C@@H](OC2OC(C)C(OC)C(C)(OC)C2OC)C[C@]1(C)O)C(=O)c1c(O)cc2c(c1C3=O)O[C@H]1O[C@]2(C)[C@H](O)[C@@H](N(C)C)[C@@H]1O (stereo partly specified) was tested, and the survivor count (T/C endpoint: mean survival time, dose: 2.0 mg/kg/injection, schedule: Q01DX009 (ip), vehicle: other) was 3 of 6 and 4 of 6.
In the case of COc1ccc(CC2C(=O)NC(C)C(=O)N(C)C3C(=O)N(C)C(Cc4ccc(O)c(c4)Oc4ccc(cc4)C3O)C(=O)NC(C)C(=O)NC(C)C(=O)N2C)cc1 (stereo unspecified), the T/C (T/C endpoint: mean survival time, dose: 0.5 mg/kg/injection, schedule: Q01DX009 (ip), vehicle: saline) is reported as 129 % of control, the survivor count (T/C endpoint: mean survival time, dose: 4.0 mg/kg/injection, schedule: Q01DX009 (ip), vehicle: Klucel (hydroxypropylcellulose) (HPC)) is reported as 3 of 6 and the survivor count (T/C endpoint: mean survival time, dose: 8.0 mg/kg/injection, schedule: Q01DX009 (ip), vehicle: Klucel (hydroxypropylcellulose) (HPC)) is reported as 0 of 6 and 6 of 6.
With CCOCCNCc1ccc(Cl)c(Cl)c1 the survivor count [2] was 0 of 6.
With CCN(CC)C(=O)[S-].CCN(CC)C(=O)[S-].[Ni+2] the survivor count [1] was 2 of 6, the survivor count [4] was 3 of 6 and the survivor count [5] was 0 of 6.
With c1ccc2nc3ccccc3cc2c1 the survivor count [5] was 4 of 6.
With CCNc1nc(NC(C)C)nc(OC)n1 the survivor count (T/C endpoint: mean survival time, dose: 400.0 mg/kg/injection, schedule: Q04DX003 (ip), vehicle: saline) was 3 of 6.
In the case of CC(C)CN1CCOCC1, the survivor count [4] is reported as 0 of 6 and the survivor count [2] is reported as 0 of 6.
In the case of CC1=C(/C=C/C(C)=C/C=C/C(C)=C/C=O)C(C)(C)CCC1, the survivor count (T/C endpoint: median survival time, dose: 100.0 mg/kg/injection, schedule: Q01DX005 (ip), vehicle: saline with Tween-80) is reported as 3 of 6, the survivor count (T/C endpoint: median survival time, dose: 200.0 mg/kg/injection, schedule: Q01DX005 (ip), vehicle: saline with Tween-80) is reported as 0 of 6 and the survivor count (T/C endpoint: median survival time, dose: 400.0 mg/kg/injection, schedule: Q01DX005 (ip), vehicle: saline with Tween-80) is reported as 0 of 6.
With CSc1ncnc2c1cnn2C1OC(COC(C)=O)C(OC(C)=O)C1OC(C)=O (stereo unspecified) the T/C (T/C endpoint: median survival time, dose: 72.0 mg/kg/injection, schedule: Q01DX005 (ip), vehicle: distilled water + Tween-80) was 130 % of control.
For O=C1OCC/C1=C1/CCOC1, the survivor count [1] was 0 of 3.
[N-]=[N+]=NCC1OC(OC2(CO)OC(CN=[N+]=[N-])C(O)C2O)C(O)C(O)C1O (stereo unspecified) was tested, and the survivor count (T/C endpoint: mean survival time, dose: 200.0 mg/kg/injection, schedule: Q01DX009 (ip), vehicle: saline) was 2 of 3.
In the case of O=C(/C=C(\NC1CCCCC1)C(=O)c1ccccc1)c1ccccc1, the survivor count (T/C endpoint: mean survival time, dose: 100.0 mg/kg/injection, schedule: Q04DX003 (ip), vehicle: saline with Tween-80) is reported as 6 of 6.
In the case of CCO[Si](OCC)OCC, the survivor count [9] is reported as 1 of 6 and the survivor count [10] is reported as 0 of 6.
For C[CH2][Sn]1([CH2]C)[O]OC(c2ccccc2)[O]1 (stereo unspecified), the survivor count (T/C endpoint: mean survival time, dose: 25.0 mg/kg/injection, schedule: Q01DX009 (ip), vehicle: saline with Tween-80) was 0 of 6, the survivor count (T/C endpoint: mean survival time, dose: 25.0 mg/kg/injection, schedule: Q04DX002 (ip), vehicle: saline with Tween-80) was 0 of 3 and the survivor count (T/C endpoint: mean survival time, dose: 50.0 mg/kg/injection, schedule: Q04DX002 (ip), vehicle: saline with Tween-80) was 0 of 3. The survivor count (T/C endpoint: mean survival time, dose: 100.0 mg/kg/injection, schedule: Q04DX002 (ip), vehicle: saline with Tween-80) was 0 of 3.
For CNC(C1CCCCC1)C(C)OC(=O)c1ccc(N)cc1 (stereo unspecified), the survivor count [9] was 3 of 6 and the survivor count [10] was 2 of 6.
CCC1(O)C(=O)OCc2c1cc1n(c2=O)Cc2cc3cc(N)ccc3nc2-1 (stereo unspecified) was tested, and the survivor count (T/C endpoint: median survival time, dose: 10.42 mg/kg/injection, schedule: Q01DX005 (ip), vehicle: saline) was 6 of 6 and the survivor count (T/C endpoint: median survival time, dose: 32.0 mg/kg/injection, schedule: Q04DX002 (ip), vehicle: saline) was 6 of 6.
With COc1ccc2[nH]c3cc(Cl)ccc3c(=O)c2c1 the survivor count (T/C endpoint: mean survival time, dose: 200.0 mg/kg/injection, schedule: Q01DX001 (ip), vehicle: saline with Tween-80) was 6 of 6.
For CN(C)C1CCCC(OC(=O)c2ccccc2)C1 (stereo unspecified), the survivor count [3] was 0 of 6.
For C/C=C/c1cc2c(c(=O)o1)C(=O)[C@@H](O)[C@H](C)O2, the survivor count [4] was 3 of 6.
In the case of CC1=Nc2cc(Cl)c(Cl)cc2N(C)/C1=C/C1=C(Cl)C(=O)c2cc3c(Cl)ccc(Cl)c3cc2C1=O, the survivor count [2] is reported as 1 of 3.
For COc1cc(NCCCCCCCNC(C)C)c2nccc(C)c2c1, the survivor count (T/C endpoint: median survival time, dose: 25.0 mg/kg/injection, schedule: Q01DX009 (ip), vehicle: saline) was 3 of 6 and the survivor count (T/C endpoint: median survival time, dose: 50.0 mg/kg/injection, schedule: Q01DX009 (ip), vehicle: saline) was 6 of 6.
BrC1(C2(Br)N(c3ccccc3)CCN2c2ccccc2)N(c2ccccc2)CCN1c1ccccc1 was tested, and the survivor count [8] was 2 of 6, the survivor count [9] was 0 of 6 and the survivor count [10] was 0 of 6.
N/C(=N\O)c1cn(C2OC(CO)C(O)C2O)c2ncnc(N)c12 (stereo unspecified) was tested, and the T/C (T/C endpoint: mean survival time, dose: 2.0 mg/kg/injection, schedule: Q01DX007 (ip), vehicle: saline) was 139 % of control, the T/C [6] was 137 % of control and the T/C (T/C endpoint: mean survival time, dose: 2.0 mg/kg/injection, schedule: Q03DX003 (ip), vehicle: saline) was 130 % of control. The T/C (T/C endpoint: mean survival time, dose: 2.0 mg/kg/injection, schedule: Q04DX003 (ip), vehicle: saline) was 127 % of control, the T/C (T/C endpoint: mean survival time, dose: 4.0 mg/kg/injection, schedule: Q01DX007 (ip), vehicle: saline) was 139 % of control and the T/C [7] was 133 % of control [5 of 6 alive]. For the same compound, the T/C (T/C endpoint: mean survival time, dose: 4.0 mg/kg/injection, schedule: Q03DX003 (ip), vehicle: saline) was 127 % of control, the T/C (T/C endpoint: mean survival time, dose: 4.0 mg/kg/injection, schedule: Q04DX003 (ip), vehicle: saline) was 127 % of control and the T/C (T/C endpoint: mean survival time, dose: 8.0 mg/kg/injection, schedule: Q01DX009 (ip), vehicle: saline) was 129 % of control. The T/C (T/C endpoint: mean survival time, dose: 8.0 mg/kg/injection, schedule: Q03DX003 (ip), vehicle: saline) was 125 % of control and the T/C (T/C endpoint: mean survival time, dose: 8.0 mg/kg/injection, schedule: Q04DX003 (ip), vehicle: saline) was 130 % of control.
